Data reported in the supplement of paper PMC10849652.
Some of the results follow.

Sequences of proteins named here, by UniProt entry; tags and fusion partners are left off. A change or cut given only in a name is not applied to a line headed by its entry.
UniProt Q14738, whole entry, looked up: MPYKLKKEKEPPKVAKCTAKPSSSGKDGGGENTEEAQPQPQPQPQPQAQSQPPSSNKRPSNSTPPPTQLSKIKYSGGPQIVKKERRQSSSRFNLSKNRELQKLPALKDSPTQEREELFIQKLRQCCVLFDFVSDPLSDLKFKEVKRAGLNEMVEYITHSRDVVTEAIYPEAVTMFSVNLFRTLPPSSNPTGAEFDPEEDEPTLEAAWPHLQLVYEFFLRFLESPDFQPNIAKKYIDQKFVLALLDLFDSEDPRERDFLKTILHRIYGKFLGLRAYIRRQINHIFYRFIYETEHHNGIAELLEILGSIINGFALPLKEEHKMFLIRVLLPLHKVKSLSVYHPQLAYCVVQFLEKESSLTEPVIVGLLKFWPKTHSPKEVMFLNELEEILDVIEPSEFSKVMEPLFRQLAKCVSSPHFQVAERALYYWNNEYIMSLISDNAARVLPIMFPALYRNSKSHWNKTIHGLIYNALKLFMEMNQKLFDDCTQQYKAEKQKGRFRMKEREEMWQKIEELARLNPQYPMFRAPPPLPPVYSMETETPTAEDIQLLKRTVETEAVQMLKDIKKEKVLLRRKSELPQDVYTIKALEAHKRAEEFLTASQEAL
UniProt Q86UA1: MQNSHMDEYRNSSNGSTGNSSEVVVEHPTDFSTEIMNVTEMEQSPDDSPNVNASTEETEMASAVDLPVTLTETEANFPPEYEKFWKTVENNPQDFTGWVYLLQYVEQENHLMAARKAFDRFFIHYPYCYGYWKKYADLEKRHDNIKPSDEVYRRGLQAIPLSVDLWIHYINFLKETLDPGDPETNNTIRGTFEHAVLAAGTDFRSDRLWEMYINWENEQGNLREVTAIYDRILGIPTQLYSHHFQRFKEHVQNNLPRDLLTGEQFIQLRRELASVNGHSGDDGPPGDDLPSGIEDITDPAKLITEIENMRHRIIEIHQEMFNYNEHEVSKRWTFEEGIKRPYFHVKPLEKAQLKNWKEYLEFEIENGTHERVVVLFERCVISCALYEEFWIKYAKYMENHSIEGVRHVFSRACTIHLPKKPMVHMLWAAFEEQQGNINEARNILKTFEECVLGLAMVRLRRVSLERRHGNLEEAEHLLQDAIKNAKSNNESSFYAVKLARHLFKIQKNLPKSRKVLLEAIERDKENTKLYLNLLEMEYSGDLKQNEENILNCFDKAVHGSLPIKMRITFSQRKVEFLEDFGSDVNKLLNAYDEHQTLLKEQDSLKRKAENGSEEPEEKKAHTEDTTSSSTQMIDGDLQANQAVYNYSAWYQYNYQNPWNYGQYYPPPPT
UniProt P30153, whole entry, looked up: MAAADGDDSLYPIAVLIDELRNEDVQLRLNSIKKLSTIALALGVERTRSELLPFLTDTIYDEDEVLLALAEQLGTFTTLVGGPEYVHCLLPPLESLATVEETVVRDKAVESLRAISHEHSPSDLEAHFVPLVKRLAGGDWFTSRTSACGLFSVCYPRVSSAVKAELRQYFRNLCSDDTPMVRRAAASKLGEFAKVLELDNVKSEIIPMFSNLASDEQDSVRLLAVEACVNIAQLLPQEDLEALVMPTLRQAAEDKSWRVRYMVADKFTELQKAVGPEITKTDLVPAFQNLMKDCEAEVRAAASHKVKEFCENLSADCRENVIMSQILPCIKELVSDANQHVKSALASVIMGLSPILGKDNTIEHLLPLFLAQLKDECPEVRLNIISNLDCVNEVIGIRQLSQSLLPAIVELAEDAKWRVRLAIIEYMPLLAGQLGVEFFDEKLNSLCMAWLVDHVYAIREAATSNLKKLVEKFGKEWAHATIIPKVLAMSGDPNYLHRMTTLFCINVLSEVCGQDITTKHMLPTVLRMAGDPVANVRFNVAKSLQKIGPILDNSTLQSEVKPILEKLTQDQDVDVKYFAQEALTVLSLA
UniProt Q8NAV1: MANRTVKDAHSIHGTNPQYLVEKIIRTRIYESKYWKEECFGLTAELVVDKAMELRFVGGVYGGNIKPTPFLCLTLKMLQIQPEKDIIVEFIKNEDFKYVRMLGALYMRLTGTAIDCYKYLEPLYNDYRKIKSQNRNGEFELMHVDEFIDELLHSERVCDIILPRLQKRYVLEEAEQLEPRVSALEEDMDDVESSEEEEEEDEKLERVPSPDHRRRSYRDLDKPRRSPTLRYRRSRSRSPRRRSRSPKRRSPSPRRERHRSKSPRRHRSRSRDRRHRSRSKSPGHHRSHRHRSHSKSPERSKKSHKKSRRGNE
UniProt Q9NR22, whole entry, looked up: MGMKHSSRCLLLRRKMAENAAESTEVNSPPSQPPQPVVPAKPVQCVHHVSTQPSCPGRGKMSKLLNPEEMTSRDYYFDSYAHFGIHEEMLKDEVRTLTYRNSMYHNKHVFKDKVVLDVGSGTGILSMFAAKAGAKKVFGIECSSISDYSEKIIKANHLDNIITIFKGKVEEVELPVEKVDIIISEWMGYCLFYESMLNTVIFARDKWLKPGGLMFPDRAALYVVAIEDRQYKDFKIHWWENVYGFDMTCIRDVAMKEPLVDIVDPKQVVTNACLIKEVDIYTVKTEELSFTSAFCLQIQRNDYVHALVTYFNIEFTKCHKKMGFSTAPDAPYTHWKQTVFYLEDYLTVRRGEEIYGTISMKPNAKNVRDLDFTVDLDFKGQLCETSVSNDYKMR
UniProt Q13356: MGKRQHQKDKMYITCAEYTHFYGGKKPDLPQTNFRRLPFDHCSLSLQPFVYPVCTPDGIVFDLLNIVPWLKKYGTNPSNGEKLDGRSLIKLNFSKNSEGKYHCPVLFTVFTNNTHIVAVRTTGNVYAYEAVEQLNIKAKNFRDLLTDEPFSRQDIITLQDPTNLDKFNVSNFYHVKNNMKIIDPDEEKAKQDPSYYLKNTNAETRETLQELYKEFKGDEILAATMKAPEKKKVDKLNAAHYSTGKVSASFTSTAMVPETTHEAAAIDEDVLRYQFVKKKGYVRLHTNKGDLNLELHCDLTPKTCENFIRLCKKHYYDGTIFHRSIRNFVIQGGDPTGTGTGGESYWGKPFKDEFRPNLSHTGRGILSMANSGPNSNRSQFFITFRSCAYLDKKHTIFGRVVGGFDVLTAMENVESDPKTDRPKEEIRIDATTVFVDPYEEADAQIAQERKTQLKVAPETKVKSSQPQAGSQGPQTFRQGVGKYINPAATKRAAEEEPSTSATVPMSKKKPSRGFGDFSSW
UniProt Q96C90: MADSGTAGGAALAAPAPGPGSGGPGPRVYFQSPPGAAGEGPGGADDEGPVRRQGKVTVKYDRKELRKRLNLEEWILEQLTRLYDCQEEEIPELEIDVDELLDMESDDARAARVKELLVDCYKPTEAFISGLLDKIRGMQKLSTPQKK
UniProt O15355: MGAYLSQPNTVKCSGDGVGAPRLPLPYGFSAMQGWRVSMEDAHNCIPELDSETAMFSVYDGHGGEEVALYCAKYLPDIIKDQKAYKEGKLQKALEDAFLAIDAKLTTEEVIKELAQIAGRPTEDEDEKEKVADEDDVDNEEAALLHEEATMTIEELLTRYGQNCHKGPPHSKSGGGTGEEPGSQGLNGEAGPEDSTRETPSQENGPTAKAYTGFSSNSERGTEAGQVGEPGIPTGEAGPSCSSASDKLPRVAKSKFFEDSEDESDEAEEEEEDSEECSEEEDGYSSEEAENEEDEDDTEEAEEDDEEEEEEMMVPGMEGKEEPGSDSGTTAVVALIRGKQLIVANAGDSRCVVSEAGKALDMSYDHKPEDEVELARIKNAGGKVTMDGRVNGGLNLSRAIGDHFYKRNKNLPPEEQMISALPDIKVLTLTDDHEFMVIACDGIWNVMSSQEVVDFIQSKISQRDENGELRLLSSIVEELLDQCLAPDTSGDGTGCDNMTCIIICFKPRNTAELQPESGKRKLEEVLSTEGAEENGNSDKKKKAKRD
UniProt O14744, whole entry, looked up: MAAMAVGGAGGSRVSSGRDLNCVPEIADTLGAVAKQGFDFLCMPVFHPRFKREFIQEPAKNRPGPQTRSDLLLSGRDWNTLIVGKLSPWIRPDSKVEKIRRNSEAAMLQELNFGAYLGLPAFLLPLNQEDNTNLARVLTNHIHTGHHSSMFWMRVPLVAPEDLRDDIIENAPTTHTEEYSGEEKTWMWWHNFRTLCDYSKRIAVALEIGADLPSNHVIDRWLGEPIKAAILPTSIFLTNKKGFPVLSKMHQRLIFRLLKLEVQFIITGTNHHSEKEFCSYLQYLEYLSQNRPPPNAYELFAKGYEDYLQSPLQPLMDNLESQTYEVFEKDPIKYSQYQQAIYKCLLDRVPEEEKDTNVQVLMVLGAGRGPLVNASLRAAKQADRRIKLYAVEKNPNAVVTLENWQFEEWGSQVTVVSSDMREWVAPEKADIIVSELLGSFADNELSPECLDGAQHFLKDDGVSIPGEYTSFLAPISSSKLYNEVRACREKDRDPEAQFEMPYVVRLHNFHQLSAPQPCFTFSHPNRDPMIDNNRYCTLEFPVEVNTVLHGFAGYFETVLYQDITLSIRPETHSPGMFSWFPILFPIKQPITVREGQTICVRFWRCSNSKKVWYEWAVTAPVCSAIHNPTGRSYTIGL
UniProt Q9Y478: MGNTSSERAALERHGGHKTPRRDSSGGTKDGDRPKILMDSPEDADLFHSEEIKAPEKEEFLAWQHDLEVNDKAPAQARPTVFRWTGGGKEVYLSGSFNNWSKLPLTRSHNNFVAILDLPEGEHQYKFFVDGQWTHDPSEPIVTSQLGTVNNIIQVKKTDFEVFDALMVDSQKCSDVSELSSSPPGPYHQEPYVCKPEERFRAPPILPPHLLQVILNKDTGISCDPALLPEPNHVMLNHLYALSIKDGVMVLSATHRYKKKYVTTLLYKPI
UniProt Q15173: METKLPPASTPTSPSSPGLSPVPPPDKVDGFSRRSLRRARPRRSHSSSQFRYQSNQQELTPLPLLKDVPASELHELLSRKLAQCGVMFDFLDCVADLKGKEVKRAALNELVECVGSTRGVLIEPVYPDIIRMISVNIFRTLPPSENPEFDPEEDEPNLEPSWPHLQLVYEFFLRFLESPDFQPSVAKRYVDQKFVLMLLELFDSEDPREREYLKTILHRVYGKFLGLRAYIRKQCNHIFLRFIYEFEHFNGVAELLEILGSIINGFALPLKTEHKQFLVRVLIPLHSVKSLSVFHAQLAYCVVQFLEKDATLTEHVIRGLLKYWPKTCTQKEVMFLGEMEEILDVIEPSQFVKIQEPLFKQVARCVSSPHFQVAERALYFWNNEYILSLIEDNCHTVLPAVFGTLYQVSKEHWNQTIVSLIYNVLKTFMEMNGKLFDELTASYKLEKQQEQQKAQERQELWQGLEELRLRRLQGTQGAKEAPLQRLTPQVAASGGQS
UniProt O43663: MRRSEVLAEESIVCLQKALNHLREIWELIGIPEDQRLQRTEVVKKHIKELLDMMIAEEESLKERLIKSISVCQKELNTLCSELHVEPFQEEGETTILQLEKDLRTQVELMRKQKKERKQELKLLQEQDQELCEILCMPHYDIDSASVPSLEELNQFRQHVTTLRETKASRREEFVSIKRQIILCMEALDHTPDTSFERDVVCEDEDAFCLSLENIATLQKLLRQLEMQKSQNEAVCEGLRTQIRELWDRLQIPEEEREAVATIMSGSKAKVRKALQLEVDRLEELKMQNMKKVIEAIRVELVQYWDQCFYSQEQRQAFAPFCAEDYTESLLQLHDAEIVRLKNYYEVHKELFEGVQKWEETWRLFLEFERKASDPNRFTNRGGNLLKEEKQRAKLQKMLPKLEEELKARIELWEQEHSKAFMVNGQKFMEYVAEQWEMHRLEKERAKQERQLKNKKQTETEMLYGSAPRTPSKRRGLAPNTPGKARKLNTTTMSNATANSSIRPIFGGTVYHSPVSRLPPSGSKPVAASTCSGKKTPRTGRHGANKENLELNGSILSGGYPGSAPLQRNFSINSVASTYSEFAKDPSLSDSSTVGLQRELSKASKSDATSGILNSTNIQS
UniProt Q66LE6: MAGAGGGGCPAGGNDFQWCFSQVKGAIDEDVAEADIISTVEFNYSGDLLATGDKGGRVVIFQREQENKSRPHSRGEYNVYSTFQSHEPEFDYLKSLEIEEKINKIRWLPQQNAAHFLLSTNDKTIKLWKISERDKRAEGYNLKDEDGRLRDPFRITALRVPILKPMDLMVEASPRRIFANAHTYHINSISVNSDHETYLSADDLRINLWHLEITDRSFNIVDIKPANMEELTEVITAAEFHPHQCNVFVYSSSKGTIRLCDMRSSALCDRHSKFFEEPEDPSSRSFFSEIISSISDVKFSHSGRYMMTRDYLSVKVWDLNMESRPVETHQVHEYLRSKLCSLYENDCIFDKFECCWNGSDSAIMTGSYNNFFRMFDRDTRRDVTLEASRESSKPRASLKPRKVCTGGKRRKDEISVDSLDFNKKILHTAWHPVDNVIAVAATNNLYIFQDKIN

Tests used:
Experiment in all cases: log2 fold change, soluble protein after heating vs DMSO (PISA); higher = thermal stabilisation; K562 lysate, 10 uM; active = over 0.2 and 3.5 SD of the protein, either way, in both replicates (recomputed)
alvocidib = compound: CN1CC[C@H](c2c(O)cc(O)c3c(=O)cc(-c4ccccc4Cl)oc23)[C@H](O)C1 [alvocidib]
Method in brief: (§1)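 Soluble protein was defined as the supernatant remaining after 21,000xg for 90 min, following pooling of heated aliquots and adjustment to 0.5% NP-40 at 4°C. Before that, crude K562 extract at 1 mg/mL protein in PBS pH 7.4 with 1 mM MgCl2 was treated with 10 μM compound for 30 min and heated for 3 min across 48°C-58°C. Quantification used TMTpro 16plex LC-MS/MS with channel sums equalised, and values are log-two fold changes in thermal stability relative to solvent controls from duplicates.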

Tubastatin A = compound: CN1CCc2c(c3ccccc3n2Cc2ccc(C(=O)NO)cc2)C1 [Tubastatin A]
Method in brief: as §1

[1] = compound: CNC(=O)C1=CC=CC=C1NC2=NC(=NC=C2Cl)NC3=C(C=C(C=C3)N4CCOCC4)OC
Method in brief: as §1

defactinib = compound: CNC(=O)c1ccc(Nc2ncc(C(F)(F)F)c(NCc3nccnc3N(C)S(C)(=O)=O)n2)cc1 [defactinib]
Method in brief: as §1

[2] = compound: CNc1nc(-c2ccc3c(N)n[nH]c3c2)cc(N2C[C@@H](C(=O)NC3CCCCC3)CC[C@H]2C)n1
Method in brief: as §1

encorafenib = compound: COC(=O)N[C@@H](C)CNc1nccc(-c2cn(C(C)C)nc2-c2cc(Cl)cc(NS(C)(=O)=O)c2F)n1 [encorafenib]
Method in brief: as §1

[3] = compound: COC(=O)[C@H](CCSC)NC(=O)C1=C(C=C(C=C1)NC[C@H](CS)N)C2=CC=CC=C2
Method in brief: as §1

alisertib = compound: COc1cc(Nc2ncc3c(n2)-c2ccc(Cl)cc2C(c2c(F)cccc2OC)=NC3)ccc1C(=O)O [alisertib]
Method in brief: as §1

[4] = compound: COc1cc2nc(-c3cc(F)ccc3O)nc(N[C@@H]3CNC[C@H]3C(C)(C)O)c2cc1OC
Method in brief: as §1

gefitinib = compound: COc1cc2ncnc(Nc3ccc(F)c(Cl)c3)c2cc1OCCCN1CCOCC1 [gefitinib]
Method in brief: as §1

Measured: log2 fold change

PPP2R5D (UniProt Q14738)
inactive: alvocidib 0.052 | Tubastatin A -0.036 | [1] 0.023 | defactinib 0.018 | [2] -0.051 | encorafenib -0.028 | [3] 0.029 | alisertib 0 | [4] 0.011 | gefitinib 0.003

PRPF39 (UniProt Q86UA1)
inactive: alvocidib 0.015 | Tubastatin A 0.033 | [1] 0.01 | defactinib 0.008 | [2] -0.011 | encorafenib -0.009 | [3] 0.201 | alisertib 0.025 | [4] 0.007 | gefitinib 0.006

PPP2R1A (UniProt P30153)
inactive: alvocidib 0.019 | Tubastatin A -0.02 | [1] 0.007 | defactinib 0.003 | [2] -0.046 | encorafenib -0.016 | [3] -0.045 | alisertib -0.019 | [4] -0.007 | gefitinib -0.032

PRPF38A (UniProt Q8NAV1)
inactive: alvocidib -0.178 | Tubastatin A -0.068 | [1] -0.147 | defactinib 0.013 | [2] -0.004 | encorafenib 0.115 | [3] -0.009 | alisertib -0.044 | [4] 0.013 | gefitinib -0.017

PRMT8 (UniProt Q9NR22)
inactive: alvocidib -0.11 | Tubastatin A -0.019 | [1] 0.001 | defactinib -0.103 | [2] -0.005 | encorafenib -0.002 | [3] 0.004 | alisertib -0.01 | [4] 0.016 | gefitinib 0.034

PRKACA (UniProt P17612)
active: [4] 0.558
inactive: alvocidib -0.118 | Tubastatin A 0.008 | [1] 0.034 | defactinib 0.177 | [2] 0.082 | encorafenib -0.052 | [3] -0.059 | alisertib 0.027 | gefitinib -0.01

PPIL2 (UniProt Q13356)
inactive: alvocidib -0.006 | Tubastatin A -0.1 | [1] -0.006 | defactinib -0.024 | [2] 0.056 | encorafenib -0.004 | [3] 0.036 | alisertib -0.018 | [4] 0.027 | gefitinib 0.005

PPP1R14B (UniProt Q96C90)
inactive: alvocidib 0.012 | Tubastatin A -0.009 | [1] 0.008 | defactinib -0.124 | [2] 0.078 | encorafenib -0.002 | [3] -0.013 | alisertib -0.018 | [4] -0.019 | gefitinib -0.119

PPM1G (UniProt O15355)
inactive: alvocidib 0.029 | Tubastatin A -0.013 | [1] -0.005 | defactinib 0.035 | [2] -0.043 | encorafenib 0.017 | [3] 0.043 | alisertib 0.008 | [4] -0.004 | gefitinib 0.012

PRMT5 (UniProt O14744)
active: alvocidib 0.318
inactive: Tubastatin A -0.009 | [1] 0.008 | defactinib -0.019 | [2] 0.013 | encorafenib -0.015 | [3] -0.099 | alisertib 0 | [4] 0.011 | gefitinib -0.023

PRKAB1 (UniProt Q9Y478)
inactive: alvocidib 0.112 | Tubastatin A 0 | [1] 0.147 | defactinib 0.174 | [2] 0.018 | encorafenib -0.041 | [3] -0.066 | alisertib 0.008 | [4] 0.091 | gefitinib -0.005

Reprinted from the results shown (2 entries):
PPP1R14B (UniProt Q96C90)
inactive: alvocidib 0.012 | Tubastatin A -0.009 | [1] 0.008 | defactinib -0.124 | [2] 0.078 | encorafenib -0.002 | [3] -0.013 | alisertib -0.018 | [4] -0.019 | gefitinib -0.119

PPM1G (UniProt O15355)
inactive: alvocidib 0.029 | Tubastatin A -0.013 | [1] -0.005 | defactinib 0.035 | [2] -0.043 | encorafenib 0.017 | [3] 0.043 | alisertib 0.008 | [4] -0.004 | gefitinib 0.012

Remaining list, next part:

PPP2R5B (UniProt Q15173)
active: [3] 0.288
inactive: alvocidib 0.069 | Tubastatin A -0.012 | [1] -0.03 | defactinib -0.091 | [2] -0.056 | encorafenib -0.017 | [4] 0.046

PRC1 (UniProt O43663)
inactive: alvocidib 0.002 | Tubastatin A -0.157 | [1] 0.043 | defactinib -0.012 | [2] 0.012 | encorafenib 0.031 | alisertib 0.045 | [4] -0.032 | gefitinib 0.049
active: [3] 0.255

PPP2R2D (UniProt Q66LE6)
inactive: alvocidib -0.015 | Tubastatin A 0.096 | [1] 0.008 | defactinib -0.06 | [2] -0.028 | alisertib 0.031 | [4] -0.009 | gefitinib 0.103
